In PubChem BioAssay (NCATS):
The shares of active, inactive and inconclusive entries below differ from those in the screen. A potency beside an inconclusive call is a rough fit, not a confirmed value. The source made the active and inactive calls. Calls come from the whole dose curve; as a rule, active = well fitted curve in the direction sought with a large enough effect; inconclusive = small, poorly fitted or top-dose-only effect, or another doubt; inactive = no such curve, though single readings can be large; an effect the other way counts as inactive or inconclusive.

Tests used:
[1] = Quantitative High-Throughput drug screen in 47 multiple myeloma cell lines against the NCATS MIPE library collection: KMS20_JCRB cell viability assay (AID 1918973); conditions: CellTiter-Glo ATP, 48 h; viability (% of DMSO): at 45.8 µM (top of the series); note: nearly all actives have a fitted effect of over 45% in size
Outline: (§1)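 We plated 500 myeloma cells per well, pinned in MIPE 4.0 compounds, and incubated for 48 hours at 37C. ATP was then quantified with CellTiter-Glo, with DMSO and media-only wells defining 100% and 0%.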

[2] = Quantitative High-Throughput drug screen in 47 multiple myeloma cell lines against the NCATS MIPE library collection: KMS21BM_JCRB cell viability assay (AID 1918974); conditions: ATP luminescence, 48 h; viability: at 45.8 µM (top of the series) unless noted
Outline: as §1

[3] = Quantitative High-Throughput drug screen in 47 multiple myeloma cell lines against the NCATS MIPE library collection: KMS26_JCRB cell viability assay (AID 1918975); conditions: KMS26 myeloma cells viability, CellTiter-Glo ATP, 48 h; viability (% of DMSO): at 45.8 µM (top of the series); note: nearly all actives have a fitted effect of over 45% in size
Outline: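 Approved and investigational drugs from MIPE 4.0 were added by pin tool to 500 cells per well. After 48 hours at 37C, ATP-based CellTiter-Glo luminescence indicated remaining viability.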

[4] = Quantitative High-Throughput drug screen in 47 multiple myeloma cell lines against the NCATS MIPE library collection: MMM1_PLB cell viability assay (AID 1918976); note: nearly all actives have a fitted effect of over 35% in size
Outline: (§2)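 Viability after 48 h drug exposure was measured as ATP-dependent luminescence. Cells, 500 per well, sat at 37 °C under 5% CO2; DMSO wells set 100%, media-only wells 0%.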

[5] = Quantitative High-Throughput drug screen in 47 multiple myeloma cell lines against the NCATS MIPE library collection: MOLP8_DSMZ cell viability assay (AID 1918977); conditions: MOLP8 myeloma viability, CellTiter-Glo ATP luminescence, 48 h; viability (% of control): at 45.8 µM (top of the series); note: nearly all actives have a fitted effect of over 45% in size
Outline: as §2

[6] = Quantitative High-Throughput drug screen in 47 multiple myeloma cell lines against the NCATS MIPE library collection: NCIH929_DSMZ cell viability assay (AID 1918978); note: nearly all actives have a fitted effect of over 35% in size
Outline: as §2

[7] = Quantitative High-Throughput drug screen in 47 multiple myeloma cell lines against the NCATS MIPE library collection: MM1S_ATCC cell viability assay (AID 1918980); note: nearly all actives have a fitted effect of over 45% in size
Outline: as §2

[8] = Quantitative High-Throughput drug screen in 47 multiple myeloma cell lines against the NCATS MIPE library collection: LP1_DSMZ cell viability assay (AID 1918982); conditions: LP1 myeloma viability, CellTiter-Glo ATP luminescence, 48 h; viability (% of control): at 45.8 µM (top of the series); note: nearly all actives have a fitted effect of over 35% in size
Outline: as §2

[9] = Quantitative High-Throughput drug screen in 47 multiple myeloma cell lines against the NCATS MIPE library collection: L363_DSMZ cell viability assay (AID 1918984); conditions: L363 myeloma viability, CellTiter-Glo ATP luminescence, 48 h; viability (% of control): at 45.8 µM (top of the series); note: nearly all actives have a fitted effect of over 40% in size
Outline: as §2

[10] = Quantitative High-Throughput drug screen in 47 multiple myeloma cell lines against the NCATS MIPE library collection: KMS34_JCRB cell viability assay (AID 1918985); conditions: KMS34 myeloma viability, CellTiter-Glo ATP luminescence, 48 h; viability, percent of control: at 45.8 µM (top of the series); note: nearly all actives have a fitted effect of over 40% in size
Outline: as §2

[11] = Quantitative High-Throughput drug screen in 47 multiple myeloma cell lines against the NCATS MIPE library collection: OCIMY7_PLB cell viability assay (AID 1918987); conditions: OCI-MY7 myeloma viability, CellTiter-Glo ATP, 48 h; viability (% of DMSO): at 45.8 µM (top of the series); note: nearly all actives have a fitted effect of over 65% in size
Outline: as §2

[12] = Quantitative High-Throughput drug screen in 47 multiple myeloma cell lines against the NCATS MIPE library collection: OCIMY5_PLB cell viability assay (AID 1918988); conditions: OCI-MY5 myeloma viability, ATP luminescence, 48 h; viability, % of control: at 45.8 µM (top of the series); note: nearly all actives have a fitted effect of over 65% in size
Outline: as §2

[13] = Quantitative High-Throughput drug screen in 47 multiple myeloma cell lines against the NCATS MIPE library collection: OPM1_PLB cell viability assay (AID 1918989); note: nearly all actives have a fitted effect of over 40% in size
Outline: as §2

[14] = Quantitative High-Throughput drug screen in 47 multiple myeloma cell lines against the NCATS MIPE library collection: SKMM1_PLB cell viability assay (AID 1919863); conditions: SKMM1 myeloma viability, CellTiter-Glo ATP, 48 h; viability: stronger effect = lower value; note: nearly all actives have a fitted effect of over 35% in size
Outline: as §2

[15] = Quantitative High-Throughput drug screen in 47 multiple myeloma cell lines against the NCATS MIPE library collection: U266_ATCC cell viability assay (AID 1919864); conditions: U266 myeloma viability, CellTiter-Glo ATP luminescence, 48 h; viability (% of DMSO control): at 45.8 µM (top of the series); note: nearly all actives have a fitted effect of over 35% in size
Outline: as §2

[16] = Quantitative High-Throughput drug screen in 47 multiple myeloma cell lines against the NCATS MIPE library collection: OCIMY1_PLB cell viability assay (AID 1918979); conditions: OCI-MY1 myeloma viability, CellTiter-Glo ATP, 48 h; viability: at 45.8 µM (top of the series) unless noted; note: nearly all actives have a fitted effect of over 35% in size
Outline: as §2

[17] = Quantitative High-Throughput drug screen in 47 multiple myeloma cell lines against the NCATS MIPE library collection: KMS28PE_JCRB cell viability assay (AID 1918983); note: nearly all actives have a fitted effect of over 35% in size
Outline: as §2

[18] = Quantitative High-Throughput drug screen in 47 multiple myeloma cell lines against the NCATS MIPE library collection: XG1_PLB cell viability assay (AID 1919866); conditions: CellTiter-Glo ATP, 48 h; viability: at 45.8 µM (top of the series); note: nearly all actives have a fitted effect of over 35% in size
Outline: as §2

[19] = Quantitative High-Throughput drug screen in 47 multiple myeloma cell lines against the NCATS MIPE library collection: MM1R_ATCC cell viability assay (AID 1918981); note: nearly all actives have a fitted effect of over 35% in size
Outline: as §2

[20] = Quantitative High-Throughput drug screen in 47 multiple myeloma cell lines against the NCATS MIPE library collection: XG6_PLB cell viability assay (AID 1919865); conditions: XG6 myeloma viability, CellTiter-Glo ATP luminescence, 48 h; viability (% of control): at 45.8 µM (top of the series); note: nearly all actives have a fitted effect of over 40% in size
Outline: as §2
Potency is the fitted concentration of half-maximal effect.

CC1(C)O[C@H]2CC(=O)OC[C@]23[C@H]2CC[C@@]4(C)[C@H](c5ccoc5)OC(=O)[C@H]5O[C@]54[C@]2(C)C(=O)C[C@@H]13
Potency [1]: inactive
Potency [2]: inactive
Potency [3]: inactive
Potency [4]: inconclusive: 0.0235 µM [rising, full curve]
Potency [5]: inactive
Potency [6]: inactive
Potency [7]: inactive
Potency [8]: inactive
Potency [9]: inconclusive: 0.0012 µM [cytotoxic, full curve, poor fit]
Potency [10]: inactive
Potency [11]: inconclusive: 0.001 µM
Potency [12]: inconclusive: 0.0047 µM [cytotoxic, full curve, poor fit]
Potency [13]: inconclusive: 0.001 µM
Potency [14]: inconclusive: 18.7 µM [rising, single point]
Potency [15]: inconclusive: 0.0372 µM [rising, full curve, poor fit]

Cc1ccc(S(=O)(=O)NC(=O)NN2CC3CCCC3C2)cc1 (configuration not stated)
Potency [1]: active: 10.5 µM
Potency [2]: inconclusive: 37.2 µM [cytotoxic, single point]
Potency [3]: inconclusive: 33.2 µM [cytotoxic, single point]
Potency [4]: inconclusive: 37.2 µM [cytotoxic, single point]
Potency [5]: inconclusive: 37.2 µM [cytotoxic, partial curve, poor fit]
Potency [6]: inconclusive: 33.2 µM [cytotoxic, single point]
Potency [16]: inconclusive: 37.2 µM [cytotoxic, single point]
Potency [7]: active: 20.9 µM
Potency [8]: inconclusive: 37.2 µM [cytotoxic, single point]
Potency [17]: inconclusive: 26.4 µM [cytotoxic, single point]
Potency [9]: inconclusive: 37.2 µM [cytotoxic, partial curve, poor fit]
Potency [10]: inconclusive: 37.2 µM [cytotoxic, single point]
Potency [12]: inconclusive: 37.2 µM [cytotoxic, partial curve, poor fit]
Potency [13]: active: 20.9 µM
Potency [14]: inconclusive: 20.9 µM [cytotoxic, partial curve, poor fit]

Cc1ccc2c(c1)c1c(n2CCc2ccc(C)nc2)CCN(C)C1
Potency [1]: inconclusive: 29.6 µM [cytotoxic, single point]
Potency [2]: inconclusive: 7.43 µM [rising, full curve, poor fit]
Potency [3]: inactive
Potency [4]: inconclusive: 0.0042 µM [rising, full curve, poor fit]
Potency [5]: inactive
Potency [7]: inactive
Potency [8]: inconclusive: 33.2 µM [cytotoxic, single point]
Potency [9]: inconclusive: 37.2 µM [cytotoxic, single point]
Potency [10]: inconclusive: 7.43 µM [rising, partial curve, poor fit]
Potency [11]: inconclusive: 37.2 µM [cytotoxic, partial curve, poor fit]
Potency [13]: inconclusive: 33.2 µM [cytotoxic, single point]
Potency [14]: inconclusive: 0.372 µM [rising, partial curve, poor fit]
Potency [18]: inconclusive: 33.2 µM [cytotoxic, single point]

O=C(O)c1ccc(O)c2ncc(N3CCOCC3)cc12
Potency [1]: inconclusive: 3.72 µM [cytotoxic, full curve, poor fit]
Potency [2]: inconclusive: 20.9 µM [cytotoxic, partial curve, poor fit]
Potency [3]: inactive
Potency [4]: inconclusive: 16.6 µM [cytotoxic, partial curve, poor fit]
Potency [5]: inconclusive: 1.05 µM [cytotoxic, full curve, poor fit]
Potency [19]: inconclusive: 37.2 µM [cytotoxic, single point]
Potency [8]: active: 20.9 µM
Potency [10]: inconclusive: 9.35 µM [cytotoxic, partial curve, poor fit]
Potency [11]: inconclusive: 6.62 µM [cytotoxic, partial curve, poor fit]
Potency [15]: inconclusive: 37.2 µM [cytotoxic, single point]
Potency [20]: inconclusive: 26.4 µM [cytotoxic, single point]
Potency [18]: inconclusive: 26.4 µM [cytotoxic, single point]

CCCCC(=O)O[C@]1(C(=O)CO)[C@@H](C)C[C@H]2[C@@H]3CCC4=CC(=O)C=C[C@]4(C)[C@@]3(F)[C@@H](O)C[C@@]21C
viability (% of DMSO) [1]: inconclusive: 54.7% [cytotoxic]
viability [2]: active: 131%
Potency [3]: inactive
Potency [4]: inactive
Potency [7]: inconclusive: 0.0264 µM [cytotoxic, full curve, poor fit]
Potency [8]: inconclusive: 0.0166 µM [cytotoxic, partial curve, poor fit]
Potency [17]: inactive
Potency [9]: inconclusive: 0.0935 µM [cytotoxic, full curve, poor fit]
Potency [11]: inconclusive: 0.0023 µM [rising, full curve, poor fit]
Potency [13]: active: 0.0372 µM
viability [14]: inactive: 122%
Potency [20]: inactive
